# Results of single-concentration screens

Measurements from “University of Dundee, Small-Polar-MMV Screening Library” (2021), ChEMBL document CHEMBL3988442.

The filed quantity is “Percent Effect” (%).
How 0% and 100% were set is not recorded. Most values in the screen are low, and negative values occur.
This is an unselected part of the compounds tested.
Two or more numbers in one place are separate tests of the same structure; such repeats can differ widely.

A: 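Growth of Mycobacterium tuberculosis over 4 days (cholesterol / DPPC medium with tyloxapol); the read-out is not stated. Tested at 50 µM. Direction is inferred from retests: higher values go with more growth inhibition. About 69,000 compounds were tested under these conditions; 0.54% (about 370) showed 50% or more at least once.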
B: 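Growth of Mycobacterium tuberculosis over 3 days (7H9 medium with glucose and tyloxapol); the read-out is not stated. Compounds at 50 µM. Higher reads as more growth inhibition (inferred: compounds with an IC50 in retests scored well above the rest). Of about 69,000 compounds tested this way, about 760 (1.1%) reached 50% or more in at least one test.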

Compound	A	B
COCCn1c(=O)n(Cc2ccccc2C)c2cc(C(=O)O)ccc21	11.29	-3.413 & -7.717
CN(Cc1nc2ccccc2o1)C1CCCN(c2cccnn2)C1 (stereo not drawn)	-17.26	106.3
O=C1CC(NS(=O)(=O)N2CCOCC2)CN1CCc1ccccc1 (stereo not drawn)	-3.486	-5.387
O=C(Cc1ccsc1)NCC1OCCc2cn(CC3CC3)nc21 (stereo not drawn)	22.51	34.31
CNC(=O)c1n[nH]c2c1C(c1cccc3c1OC(C)(C)C3)CC(=O)N2 (stereo not drawn)	3.04	-8.451
COc1ccccc1Cc1nnc(SCCS(C)(=O)=O)o1	-12.06	0.887
CC(=O)c1ccc(N2CCN(C(=O)c3cc(C(C)C)nn3C)CC2)cc1	12.13	7.568
[H][C@@]12CS(=O)(=O)C[C@]1([H])N(C(=O)c1cc(C(C)C)on1)CCN2C	-20.63 & -5.118	-26.06
COc1ccccc1Oc1ncccc1CNC(=O)C(C)CN (stereo not drawn)	-15.84	4.437
CCc1noc(CN(C)Cc2cc(Br)ccc2OC)n1	3.938	22.17 & 21.27
CCC(=O)NC1CCCN(Cc2ccc(-n3ccnc3)cc2)C1 (stereo not drawn)	-7.88	-23.68
O=C(c1ccncc1)N1CCCC(c2cc(C(F)F)n3ncnc3n2)C1 (stereo not drawn)	-3.906	-0.3706
CCc1noc(C(C)N2CCC(N3CCCC3)CC2)n1 (stereo not drawn)	-14.59	-15.07
Cn1c2ccc(F)cc2c2ncn(CCN3CCOCC3)c(=O)c21	-34.91	-36.33
CCn1cc(CN2CCCN(C(=O)c3ccoc3C)CC2)cn1	-6.439	6.25
CCn1cnnc1CNC(=O)NC(C)c1cccs1 (stereo not drawn)	-4.993	23.62
Cc1ccc(N(CCC#N)C(=O)CN2CCCC2c2ccsc2)cc1C (stereo not drawn)	15.86	44.77
Cn1cc(CN2CCC3(CC2)CC(c2ccncc2)C(=O)N3)cn1.O=C(O)C(F)(F)F.O=C(O)C(F)(F)F (stereo not drawn)	-30.42	1.998
O=C(NCc1ccco1)c1nn(C2CCS(=O)(=O)C2)c2c1CCCC2 (stereo not drawn)	-8.937	-3.648 & 13.57
CCCn1nnnc1COc1ccc(C(=O)OC)cc1OC	3.001	-1.204
Cc1c(C(=O)NCC2CCN(C)C2)n(C)c2c(C)cccc12 (stereo not drawn)	4.49	-13.47
Cc1c(C(=O)N2CCN(C)CC2)n(C)c2ccc(Cl)cc12	-4.469	23.78 & 8.315
CCc1cnc(N)nc1N1CCCC2(CCOCC2)C1	-19.95	15.77 & 1.148
CC(C)Cc1noc(CN2CCOC(Cn3cncn3)C2)n1 (stereo not drawn)	-24.11	-9.081
Cc1cc(C)c(CNC(=O)N2CCC(N3CCCC3)CC2)c(=O)[nH]1	1.839 & -4.163	-22.07
Cc1noc(CCNS(=O)(=O)N2CCCC2c2ccco2)n1 (stereo not drawn)	-0.5162 & -8.38	-35.7 & -6.015
CCNC(=O)NC(C)(C)C(=O)NCc1cccc(N2CC=CC2)c1	0.5523 & -6.266	-3.741
CN(C)CC1CN(CCOc2cccc(C#N)c2)CCO1 (stereo not drawn)	-6.119	2.595
CCCN1CCC(NC(=O)c2csc(C)c2C)CC1	-2.214 & 5.147	0.819 & -3.024
[H][C@]12CCN(c3ncccn3)CC[C@@]1([H])S(=O)(=O)N(CC)C2	-2.199	-7.857 & -2.969
Cc1nn(C)c2c(N3CCN(C(=O)C4CC4)CC3)ncnc12	7.926	-36.76
N#CC1(NC(=O)c2ccc(-c3nc(C4CC4)n[nH]3)cc2)CCC1	4.6	1.405
O=C(O)C(F)(F)F.[H][C@@]12CCN(C(C)C)C[C@]1([H])CN(C(=O)c1cccc(C)c1)C2	-15.47	-24.59
COc1cccc(C(=O)NCc2ccccc2S(=O)(=O)N(C)C)c1	-4.623 & -4.276	3.694
[H][C@@]12CS(=O)(=O)C[C@]1([H])NCCN2C(=O)COc1ccccc1N1CCCC1	-15.82	0.9228 & -15.31
CN(CCCc1cnn(C)c1)Cc1cc2n(n1)CCCN(C)C2	-0.8319	-10.76
COC(=O)c1ccccc1NS(=O)(=O)c1c(C)nn(C)c1C	-5.699	6.81
CCc1ccc2c(C3CN(C(C)=O)C3)ncn2c1	-15.05	-13.49 & -7.71
O=C(NCc1ccccn1)NCc1ccc(Cl)s1	5.77	9.942
Cc1cccnc1CSCCCNS(C)(=O)=O	5.196	3.671
CC(=O)N1CCN(C[C@H]2CC[C@@H](Cc3ccc4ncccc4c3)O2)CC1	2.466	-2.286
CCN(CC)C(=O)c1ccc(Cl)c(NC(=O)c2cc[nH]n2)c1	-37.13	-35.52 & -3.037
O=C(O)C(F)(F)F.[H][C@@]12C[C@H](C(=O)N3CCCCO3)CN(CCc3ccccc3)[C@]1([H])CCO2	-7.407	31.05
Cc1cccc(S(=O)(=O)N2CSCC2C(=O)NCC2CC2)c1 (stereo not drawn)	11.85	11.15
CC(C)Oc1cccc(CC(=O)NC2CCN(CC(N)=O)CC2)c1	-1.741	-10.68
COc1ccc(C2(NCc3noc(C4CC4)n3)CCOCC2)cc1	-15.48	4.347
CNS(=O)(=O)c1ccc(C(=O)N2CCCCC2c2ccc(C)cc2)o1 (stereo not drawn)	-7.603	-3.799
COCCNC(=O)NCc1ccc(OC(C)C)c(F)c1	6.021	9.403
CC(=O)N1CCN(C(=O)CNc2ccc3ncsc3c2)CC1	-10.11	-12.42
CCN(CC)C(=O)CCn1ncc2c(Cl)cccc21	-10.48	5.192
Cc1[nH]/c(=N/C(=O)Cn2nc(N3CCOCC3)ccc2=O)sc1C	13.38	-1.048 & 5.941
O=C(O)C(F)(F)F.[H][C@@]12CN(CC3CC3)CC[C@]1([H])CN(c1cnccn1)C2	4.287	13.93
OC1(CNCCc2nc3c(s2)CCCC3)CCNC1 (stereo not drawn)	2.394 & 2.896	14.63
Cc1cc(CC(C)Nc2ncc(C)c(N(C)C)n2)[nH]n1 (stereo not drawn)	-17.16 & -10.31	11.79
Cc1noc(C)c1CSc1nc(=O)ccn1C(C)C	-5.009	6.397
Cc1ccccc1C(C)NC(=O)Cc1c(C)nc2cc(=O)[nH]n2c1C (stereo not drawn)	-23.29	-14.86
CN1CCC(c2nnc3n2CCN(S(=O)(=O)c2ccccc2)C3)CC1	-1.319 & 5.735	24.04
CC(C)n1cnnc1CNC(=O)c1cnc2ccccc2n1	12.02	5.904
COc1cc(C)nc(N2CCN(C(=O)CN(C)C3CC3)CC2)n1	-21.02	-17.19
O=C(NCCNc1ncccn1)c1ccc(Br)cc1	-0.2359	32.21
CCOc1nnc(CN2CCC(c3nc4ccccc4[nH]3)CC2)s1	2.747	-0.1098 & -1.664
O=C(O)C(F)(F)F.[H][C@@]12CN(Cc3ccc(C)cc3)C[C@]1([H])CN(c1ncc(F)cn1)C2	8.725	3.072 & 11.67
CCCC(=O)NC1CCCN(c2nc3ccccc3cc2CO)C1 (stereo not drawn)	-4.595	14.11 & 5.75
Cc1cnn(CC2CCCN2C(=O)c2cc(C)no2)c1 (stereo not drawn)	-24.99	-19.17
COc1cccc(CN(C)Cc2ccccc2C#N)c1OC	-12.23	23.25
COc1ccsc1C(=O)N1CCCC(n2nc(C)cc2C)C1 (stereo not drawn)	7.94	-0.3687
Cc1cc(C)n(CC(C)NCCN2CCc3ccccc32)n1 (stereo not drawn)	10.59	14.83
COc1ccc(CNC(=O)N(Cc2ccc(F)cc2F)C2CC2)cn1	13.9	37.03
CSc1nc2cc(C)n(CC(=O)N3CCCC3)c2c(=O)n1CC(C)C	3.806	-2.539
O=C(Cc1ccc(F)cc1Cl)N1C[C@@H](CN2CCC(O)CC2)[C@@H](CO)C1	-9.149	-8.845
CCc1nc(C2CCCN2C(=O)Cc2cccs2)no1 (stereo not drawn)	-9.853	11.42
[H][C@@]12OCCN(Cc3cnn(C)c3)[C@@]1([H])CCC2Cn1cccn1 (stereo partly drawn)	19.88	9.965 & -3.801
O=C1C(N2CCOC3(CCCC3)C2)CCN1C1CC1 (stereo not drawn)	5.747	16
COc1cc(NCC(=O)NC(C)(C#N)C(C)C)cc(OC)c1OC (stereo not drawn)	1.375	-12.55
CC(=O)N1CCN(S(=O)(=O)c2ccc(C)c(F)c2)CC1	-3.921	-3.431 & 0.5215
Cc1cc(C)n(CC2CCCN2C(=O)c2cccc3c2OCO3)n1 (stereo not drawn)	9.147	-7.034
O=C(O)C(F)(F)F.O=C(O)C(F)(F)F.c1cnc(N2CCC3(COCCN(CC4CCOCC4)C3)C2)nc1 (stereo not drawn)	-32.19	-24.06
COc1ccc(C(=O)N(C2CC2)C2CC(=O)NC2=O)cc1 (stereo not drawn)	-20.12	-16.01 & -2.672
CN1CCn2c(-c3cccc(F)c3)cnc2C12CCN(CC1CC1)CC2.O=C(O)C(F)(F)F.O=C(O)C(F)(F)F.O=C(O)C(F)(F)F	1.69	-0.8736 & 2.232
CC(NCc1cccc(S(=O)(=O)N(C)C)c1)c1ccccn1 (stereo not drawn)	-10.96	-8.013
Cc1nc(N2CCCC2)nc2c1CCN(C(=O)N1CCCC1)CC2	-3.12 & -3.061	-15.76

Repeated from the top, 4 entries:

Compound,A,B
COCCn1c(=O)n(Cc2ccccc2C)c2cc(C(=O)O)ccc21,11.29,-3.413 & -7.717
CN(Cc1nc2ccccc2o1)C1CCCN(c2cccnn2)C1 (stereo not drawn),-17.26,106.3
O=C1CC(NS(=O)(=O)N2CCOCC2)CN1CCc1ccccc1 (stereo not drawn),-3.486,-5.387
O=C(Cc1ccsc1)NCC1OCCc2cn(CC3CC3)nc21 (stereo not drawn),22.51,34.31